Results deposited as PubChem BioAssay AID1259307 (Sanger Institute, 2017)
In all, the deposit lists 794 reagents; this is a part drawn at random. 15 of all reagents (1.9%) count as active. 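Calls reflect lethality without any drug; synergy scores did not enter the calls.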 Entries without a mark were called inactive. Further read-outs or replicates are left out here. No sequences are given here. Not given: the amount of reagent, the time to read-out.

- Assay: 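siRNA kinome screen seeking kinases whose loss harms SW620 cells alone or with drugs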 (primary screen)
- Cell system: SW620 colorectal cancer cells
- Reagent: siRNA pool against human genes
- Treatment: anchor drugs BYL719 at 1 µM, cetuximab at 5 µg/ml or trametinib at 10 nM, each beside a DMSO vehicle arm
- Detection: 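Per-well viability versus non-targeting control pool, replicate-averaged, robust z-score from controls; synergy scores for BYL719 1 µM, cetuximab 5 µg/ml, trametinib 10 nM against DMSO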
- Reading the numbers: viability robust z-score, no drug: higher = more viable cells
- Active means: 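Essential when the viability robust z-score without drug is under -3; synergy scores are ignored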
- Calls: active = essential (lethal alone); inactive = no change alone

target	viability robust z-score, no drug
CLK4 (GeneID 57396)	-0.327
BLK (GeneID 640)	-1.03
PHKA1 (GeneID 5255)	0.736
MAPK10 (GeneID 5602)	0.736
NRAS (GeneID 4893)	0.736
TRIM27 (GeneID 5987)	-1.51
HK1 (GeneID 3098)	0.736
WEE1 (GeneID 7465)	-0.584
PIK3CA (GeneID 5290)	0.28
OBSCN (GeneID 84033)	0.0394
MAPK8 (GeneID 5599)	0.736
RUNX1 (GeneID 861)	0.232
CDK16 (GeneID 5127)	0.235
AURKB (GeneID 9212)	-0.873
FLT4 (GeneID 2324)	0.736
AKT2 (GeneID 208)	0.564
PLK3 (GeneID 1263)	-1.68
TBK1 (GeneID 29110)	0.736
FLT3 (GeneID 2322)	0.0278
OXSR1 (GeneID 9943)	0.736
FGFR3 (GeneID 2261)	0.0894
BCKDK (GeneID 10295)	0.736
CHKA (GeneID 1119)	-0.606
DUSP21 (GeneID 63904)	-0.439
WIPF1 (GeneID 7456)	-1.23
PRKCB (GeneID 5579)	0.736
CDK10 (GeneID 8558)	0.375
FASTK (GeneID 10922)	0.332
BRWD1 (GeneID 54014)	0.681
SRPK3 (GeneID 26576)	0.736
TESK2 (GeneID 10420)	0.736
PHKG1 (GeneID 5260)	-1.85
TYK2 (GeneID 7297)	-0.209
MYLK3 (GeneID 91807)	0.583
MAP3K11 (GeneID 4296)	0.736
FCSK (GeneID 197258)	0.736
GRK1 (GeneID 6011)	-0.145
PRKAG2 (GeneID 51422)	0.736
HUNK (GeneID 30811)	-2.02
CDK2 (GeneID 1017)	0.736
STK38L (GeneID 23012)	-1.04
BMPR1A (GeneID 657)	-0.181
CDKL2 (GeneID 8999)	0.736
ATP23 (GeneID 91419)	-1.15
IKBKG (GeneID 8517)	-0.433
PRKG1 (GeneID 5592)	0.435
PIK3C3 (GeneID 5289)	0.736
CDKN2C (GeneID 1031)	0.736
BMX (GeneID 660)	0.736
TBX3 (GeneID 6926)	0.617

Laid out differently: results already given
{"target": "AURKB (GeneID 9212)", "viability robust z-score, no drug": -0.873}
{"target": "FLT4 (GeneID 2324)", "viability robust z-score, no drug": 0.736}
{"target": "AKT2 (GeneID 208)", "viability robust z-score, no drug": 0.564}
